The results in this text go back to PubChem BioAssay AID1508600 (Functional Genomics Laboratory (NCATS/FGL), 2020).

About 3,700 (7%) of roughly 53,000 sequences were called active.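 The calls were made as follows: active = gene knockdowns whose robust z-score for IL-1 alpha signal is at least 2 or at most -2, so actives lie on both sides; inactive = the rest.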 The list shows a part of the results.

A short description of the assay: Components of the Cytosolic LPS Sensing Pathway: Gene Identification via Genome-wide siRNA Screen.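 Also: robust z of the log signal after scaling to non-targeting control siRNA wells of the plate.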 The settings on record: RAW264.7 macrophages, IL-1a HTRF, actives lie on both sides, screened at 100 nM (by protocol), cells primed 5 h with Pam3CSK4 first. The method, boiled down:
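Read-out: IL-1a HTRF on supernatant, divided by plate negative-control median ×100, log-transformed and converted to robust z-score. Cells were RAW264.7 given 100 nM siRNA, Pam3CSK4-primed 5 hours, then LipidA-transfected 24 hour.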
In the case of CCAGUGGUAUGUGUGCAACTT against Mettl9, the z-score was inactive: 1.04.
In the case of GGAACAUUCUAGAAUCUGUTT against Rps6kb2, the z-score is inactive: 0.986.
For the sequence GCCCACCUGUGCAAUCAUATT against Arl4a, the z-score is inactive: 0.792.
On to GGGACUUGUUGCUUAGCAATT against Ppip5k2, for which the z-score was inactive: -0.552.
The value for GGUUGUUACCUUACUGUACTT against Olfr532 was inactive: 0.952; that for GGCUGCCUUCAUCUUUUCUTT against Fth1 was inactive: 0.873; that for GAUCUGUUACUCUUCUACUTT against Olfr1270 was inactive: 0.252.
The value for CCGUUUACGGCCACUAACUTT against Phkg2 was active: 3.68; that for GGGAAACCGAGUCAAGAAGTT against Fgf11 was inactive: 0.825; that for GGACAUCAACUAUGCCUCUTT against Kif1a was inactive: 0.707.
The result for GGUCUUCAGCACCUUUGAATT against Ccl2 reads inactive: -0.903; that for GGCACACAAUUUUCACUGATT against Pcdhb9, inactive: 0.315.
Take GCUACUGUCAAGUAUGGAATT against Psmg1: the z-score is inactive: 0.0492.
The result for CCUAUAGCCGCCUUAUGGATT against Arhgef15 reads inactive: 0.0435; that for GGUCUAAUCAAUGUUUUGCTT against Zfp933, inactive: 1.54; that for GGCCUAUUACAAGGAAUUCTT against Gnl3l, inactive: 1.16.
The value for ACUCAUUACACCCUUACCUTT against Nxpe5 was inactive: -1.19.
In the case of CCGACUUCGUACAAUGACCTT against Slc1a6, the z-score was inactive: 1.45.
The value for GCCAAACUUACGUUUUUGATT against Trak2 was inactive: 0.81; that for GGACUUCUGGAUUGUUGGATT against Thpo was inactive: -0.0145.
The result for CGACAAGGAGACCUACAAATT against Itm2b reads inactive: 0.615.
The result for GGCUGUAUGUAUAUAGUCCTT against Snrpb reads active: -2.41; that for GGUAACAUCCCAGCUUUACTT against Pax7, inactive: -0.214; that for GGUAAAAUCCCAGAACUGCTT against Serpinb1b, inactive: -0.0969.
In the case of GGAAACAUUGUCAUCAUGATT against Olfr1299, the z-score is inactive: -0.787.
GGAGUUAAUGAUUCAUUGCTT against Ripk3: the z-score was inactive: -0.683.
Consider CCUAUGGUAGAUAUCUGUGTT against Rcbtb2, for which the z-score was inactive: -0.612.
Take GGGUUCAAUGUGAUACACATT against Stard6: the z-score is inactive: -0.815.
On to CGUCCAAGCAUAUAUGAAATT against Slfn8, for which the z-score was inactive: 1.36.
The result for GGUAAUCUUUGAAAACCCUTT against Ncoa7 reads inactive: -1.66; that for GGACUUUUACCUCCUAAAATT against Me2, inactive: 0.377.
The value for GCCUCUUAUUAACUGAACGTT against Spag6 was inactive: 0.155; that for GGGAUUUGUUAUGUCUGUATT against Srsf7 was inactive: -1.6.
Regarding CGCAUACUGAUGAUAACUATT against Zfp317, the z-score was active: 2.12.
As for GCUAGUGACUUUGAGAUUGTT against Msh5, the z-score was inactive: -0.75.
The result for “GGACUAAGCAUUUGUAUCUTT against 3110082I17Rik” reads inactive: -0.902; that for GGCAAUUCUGUGUGUCACUTT against Spata18, inactive: -0.254.
Take GGCAAUAUUUCAGAACCUGTT against Tfb2m: the z-score was inactive: 0.44.
The value for GGAAGUUGAUAAAUGGUCUTT against Pde1a was inactive: -0.839; that for GGCCAUAAAAUGGUAGUAUTT against Trim36 was inactive: 0.0952.
The value for GGGUGUUUACUUUAUAGAATT against Nlrp4b was inactive: -0.352; that for GGUCACUUCACCCUUUGUATT against Gng5 was inactive: -0.422; that for CGAUAACAUGUUGAAAAACTT against Kctd10 was inactive: 0.734.
Take GGAGGAAUACCAGGAAUACTT against Sncb: the z-score was inactive: 0.33.
The result for GGUCUGUUCCGUAUGAAGCTT against Ube2s reads inactive: -0.585; that for GGCUAUUUAUAGUUGUCGGTT against Unc119, inactive: 0.0225; that for “CGAUGAAGAUUGUAACUAGTT against 4930555G01Rik”, inactive: 0.498.
For the sequence GGGAAACCUGAACUAACAGTT against Pcdha5, the z-score is inactive: 0.259.
For the sequence GGAUAAUUCACUGUCGCUUTT against Cyp2c37, the z-score is inactive: -1.93.
The value for GCUUAAUGCCUUGAAACGATT against Tsg101 was inactive: 1.9; that for GGAACAUGAAGCCUUUUACTT against Asb16 was inactive: -1.54.
The value for GUGAUGGUUGGGCUUCUCATT against Olfr1450 was inactive: 0.416; that for CCAAAAAUACUUCUCCUUCTT against Gata6 was inactive: 0.72; that for GCGAAGAGUCAAAUCCAUCTT against Dock8 was inactive: -1.93.
The result for CCUGAACACAAGUGCUGGUTT against Clec4a4 reads inactive: -1.8.
Regarding GCAGUGGGACAUAGUCAGATT against Tmed11, the z-score is inactive: -0.381.
The result for GGUGUAGAUAAGAACUAUGTT against Odf1 reads inactive: 1.29; that for GCUGGUUGUGUUAAAAUGCTT against Cyp4a14, inactive: -1.16; that for CCACGACACGCAAGAUGAGTT against Fzd8, inactive: -0.756.
Regarding GCCACCUAGUACUCAACUATT against Baz2a, the z-score was inactive: -1.
GGAUGUUUGUGGAUGUGGUTT against Tbx21: the z-score is inactive: -0.4.
The value for GGUCUAAAAGGGCUCCUUATT against Cxcl10 was inactive: 1.77; that for CCGACUUGGUGGAGUAUAGTT against Ddost was inactive: 0.529; that for GGAAAUCAACAACUGUAGCTT against Tas1r2 was inactive: 1.33.
In the case of GGUGUCUACGAAAUUCAAATT against Exosc9, the z-score is inactive: 1.11.
The result for GGCACUCUUGUUGAAAUUCTT against H6pd reads inactive: 0.756; that for GGCUUUUUGCUUCACUACUTT against Slco4c1, inactive: 1.06.
In the case of CCUUCUUUUGAGAACAGAATT against Nsd1, the z-score is inactive: 0.186.
The result for GGUCUUACUGUUUGUGAUATT against Olfr1295 reads inactive: -0.0542; that for CCUGCAAAUGAUACCACCGTT against Olfr734, inactive: -0.402; that for GGAAAUUUGGUGAGCAUUUTT against Synj2bp, inactive: -1.09.
The value for GGCUGAGCUGGAAAUCCAGTT against Aprt was inactive: -0.859.
The value for GCAUGUACCCUCUUUGUAGTT against Gjb6 was inactive: -0.954; that for GGUGCUUAAUCAACAGAAATT against Scn3a was inactive: -1.13.
Regarding GGAAAAGAGCAACUACCAGTT against Brf1, the z-score was inactive: -0.418.
The result for CGAAUUGGAGAGGAGCUUCTT against Otp reads inactive: 0.835; that for GGUCUCCAAAGCAGAUACCTT against Svil, inactive: -0.197; that for GCCCAAACUCAAGCAAGUCTT against Trpm3, active: 2.37.
The result for GCACGGAGCCAAAUAAUCUTT against Rpl28 reads active: 2.07.
The value for GGAGGUCCUAGAGUACAAUTT against Fdps was inactive: 0.117; that for GGCUAUCCAAAUUUGAGUCTT against Fer was inactive: 0.0324; that for GGAGGGACAUGGAGAUUACTT against Ptpn18 was active: 3.15.
GGUUCAGAACAUUAACUCCTT against Rab18: the z-score was inactive: 0.432.
The value for GCUCCUAGGAACUUGGUUATT against Pacsin2 was inactive: 0.687.
The result for GAUGCAGCCGUAGGAAUGGTT against Defa-rs10 reads inactive: 0.386.
In the case of GAUGUAGAGUUUGGAAUGATT against Psmb10, the z-score is inactive: -0.181.
In the case of GGAAUUCAAUCAGUUUGCUTT against Dysf, the z-score is inactive: 1.06.
For GGGUGCAUCCCAUUCUCUUTT against Pld1, the z-score is inactive: -0.0755.
The value for GGAUGGUCGAGUGUUUAUUTT against Sec13 was inactive: -0.536; that for GGAAGGUAAAUGUCUGCUCTT against Selenok was inactive: 0.289; that for GGCCCUAGAUUUUUAUGGGTT against Pten was inactive: -0.246.
The result for CGACUUAAAUUGCUUGUGATT against Gas1 reads inactive: -0.374; that for GGAGGUUCGAAGCUCGAUCTT against Trim28, inactive: 0.924; that for GCAGGAAGCCCAGUAAAGUTT against Figla, inactive: 0.44.
Regarding GCUAGUGCUUUUAACUCUATT against Csprs, the z-score is inactive: 1.72.
On to CCCAACAAGAGUAUCUAUGTT against Foxh1, for which the z-score was inactive: -0.125.
The result for GGUUGGUCUAGCAAUCUGUTT against Nit1 reads inactive: 0.834; that for GCAGCUAAGAAGACCACUATT against Zfp185, active: 2.15.
Consider CGGUUUUUUAAUCUACCUATT against Ppp1r7, for which the z-score was inactive: 0.801.
The result for GGAGAUCAAAGAUAUCCUCTT against Rps16 reads inactive: -0.133.
The value for GGAGAGCUAAAUAAACAAATT against Kitl was inactive: 0.549.
Consider GCCAUGUCAAUCAAUCACUTT against Nucks1, for which the z-score was active: -2.57.
Turning to GGCUACUUCUGUACUAGGATT against Gclc, the z-score was inactive: -1.05.
GGAGAGAAAGGAAAUGUUUTT against Sepsecs: the z-score is inactive: 0.203.
As for CCACGAAUUACCUUAAAGUTT against Jade3, the z-score is inactive: 0.187.
In the case of GGUCGUACUAUACCAAAGATT against Scgb2b2, the z-score was inactive: 0.487.
The value for GGCUUUAAGAUCACACAAATT against Snrpa was active: 2.09.
